# Laboratory results published in the supplement of paper PMC8728848.
# Some of the results follow.
# B1: Langerin K299A/K313A (Homo sapiens), Q9UJ71 (protein)
# chain: STLNAQIPELKSDLEKASALNTKIRALQGSLENMSKLLKRQNDILQVVSQGWKYFKGNFYYFSLIPKTWYSAEQFCVSRNSHLTSVTSESEQEFLYKTAGGLIYWIGLTKAGMEGDWSWVDDTPFNKVQSARFWIPGEPNNAGNNEHCGNIAAPSLQAWNDAPCDATFLFICKRPYVPSEP
# Assays:
# Assay in all cases: glycan array binding signal (z-score within array); higher = stronger binding
# Conditions in all cases: glycan notation: IUPAC condensed, linker removed
# [1] = target: GlcNAc(b1-2)Gal(b1-3)GalNAc
# Outline: (§1)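 Arrays were curated from the Consortium for Functional Glycomics database, 3228 in total, and kept only where the protein sequence was available. Binding is expressed as a within-array Z-score. This score was averaged across arrays of the same protein sequence at different concentrations or buffers and across linkers, and negative values can be read as non-binding.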
# [2] = target: GlcNAc(b1-2)Man(a1-3)[GlcNAc(b1-2)Man(a1-6)]Man(b1-4)GlcNAc(b1-4)GlcNAc
# Outline: as §1
# [3] = target: GlcNAc(b1-2)Man(a1-3)[GlcNAc(b1-2)Man(a1-6)]Man(b1-4)GlcNAc(b1-4)[Fuc(a1-6)]GlcNAc
# Outline: as §1
# [4] = target: GlcNAc(b1-2)Man(a1-3)[GlcNAc(b1-4)][GlcNAc(b1-2)Man(a1-6)]Man(b1-4)GlcNAc(b1-4)GlcNAc
# Outline: as §1
# [5] = target: GlcNAc(b1-2)Man(a1-3)[GlcNAc(b1-4)][GlcNAc(b1-2)Man(a1-6)]Man(b1-4)GlcNAc(b1-4)[Fuc(a1-6)]GlcNAc
# Outline: as §1
# [6] = target: GlcNAc(b1-2)[GlcNAc(b1-4)]Man(a1-3)[GlcNAc(b1-2)Man(a1-6)]Man(b1-4)GlcNAc(b1-4)GlcNAc
# Outline: as §1
# [7] = target: GlcNAc(b1-2)[GlcNAc(b1-4)]Man(a1-3)[GlcNAc(b1-4)][GlcNAc(b1-2)Man(a1-6)]Man(b1-4)GlcNAc(b1-4)GlcNAc
# Outline: as §1
# [8] = target: GlcNAc(b1-2)[GlcNAc(b1-4)]Man(a1-3)[GlcNAc(b1-4)][GlcNAc(b1-2)[GlcNAc(b1-6)]Man(a1-6)]Man(b1-4)GlcNAc(b1-4)GlcNAc
# Outline: as §1
# [9] = target: GlcNAc(b1-2)[GlcNAc(b1-4)]Man(a1-3)[GlcNAc(b1-4)][GlcNAc(b1-2)[GlcNAc(b1-6)]Man(a1-6)]Man(b1-4)GlcNAc(b1-4)[Fuc(a1-6)]GlcNAc
# Outline: as §1
# [10] = target: GlcNAc(b1-2)[GlcNAc(b1-6)]Man(a1-6)[GlcNAc(b1-2)Man(a1-3)]Man(b1-4)GlcNAc(b1-4)GlcNAc
# Outline: as §1
# [11] = target: GlcNAc(b1-2)[GlcNAc(b1-6)]Man(a1-6)[GlcNAc(b1-2)Man(a1-3)]Man(b1-4)GlcNAc(b1-4)[Fuc(a1-6)]GlcNAc
# Outline: as §1
# [12] = target: GlcNAc(b1-2)[GlcNAc(b1-6)]Man(a1-6)[GlcNAc(b1-4)][GlcNAc(b1-2)Man(a1-3)]Man(b1-4)GlcNAc(b1-4)GlcNAc
# Outline: as §1
# GlcNAc(b1-3)Fuc = target: GlcNAc(b1-3)Fuc
# Outline: as §1
# GlcNAc(b1-3)Gal = target: GlcNAc(b1-3)Gal
# Outline: as §1
# [13] = target: GlcNAc(b1-3)Gal(b1-3)GalNAc
# Outline: as §1
# GlcNAc(b1-3)Gal(b1-4)Glc = target: GlcNAc(b1-3)Gal(b1-4)Glc
# Outline: as §1
# [14] = target: GlcNAc(b1-3)Gal(b1-4)GlcNAc
# Outline: as §1
# [15] = target: GlcNAc(b1-3)Gal(b1-4)GlcNAc(b1-2)Man(a1-3)[GlcNAc(b1-3)Gal(b1-4)GlcNAc(b1-2)Man(a1-6)]Man(b1-4)GlcNAc(b1-4)GlcNAc
# Outline: as §1
# [16] = target: GlcNAc(b1-3)Gal(b1-4)GlcNAc(b1-2)Man(a1-3)[GlcNAc(b1-3)Gal(b1-4)GlcNAc(b1-2)Man(a1-6)]Man(b1-4)GlcNAc(b1-4)[Fuc(a1-6)]GlcNAc
# Outline: as §1
# [17] = target: GlcNAc(b1-3)Gal(b1-4)GlcNAc(b1-2)[GlcNAc(b1-3)Gal(b1-4)GlcNAc(b1-6)]Man(a1-6)[GlcNAc(b1-3)Gal(b1-4)GlcNAc(b1-2)Man(a1-3)]Man(b1-4)GlcNAc(b1-4)GlcNAc
# Outline: as §1
# [18] = target: GlcNAc(b1-3)Gal(b1-4)GlcNAc(b1-3)Gal(b1-4)GlcNAc
# Outline: as §1
# [19] = target: GlcNAc(b1-3)Gal(b1-4)GlcNAc(b1-3)Gal(b1-4)GlcNAc(b1-2)Man(a1-3)[GlcNAc(b1-3)Gal(b1-4)GlcNAc(b1-3)Gal(b1-4)GlcNAc(b1-2)Man(a1-6)]Man(b1-4)GlcNAc(b1-4)GlcNAc
# Outline: as §1
# [20] = target: GlcNAc(b1-3)Gal(b1-4)GlcNAc(b1-3)Gal(b1-4)GlcNAc(b1-2)Man(a1-3)[GlcNAc(b1-3)Gal(b1-4)GlcNAc(b1-3)Gal(b1-4)GlcNAc(b1-2)Man(a1-6)]Man(b1-4)GlcNAc(b1-4)[Fuc(a1-6)]GlcNAc
# Outline: as §1
# [21] = target: GlcNAc(b1-3)Gal(b1-4)GlcNAc(b1-3)Gal(b1-4)GlcNAc(b1-2)[GlcNAc(b1-3)Gal(b1-4)GlcNAc(b1-3)Gal(b1-4)GlcNAc(b1-6)]Man(a1-6)[GlcNAc(b1-3)Gal(b1-4)GlcNAc(b1-3)Gal(b1-4)GlcNAc(b1-2)Man(a1-3)]Man(b1-4)GlcNAc(b1-4)[Fuc(a1-6)]GlcNAc
# Outline: as §1
# [22] = target: GlcNAc(b1-3)Gal(b1-4)GlcNAc(b1-3)Gal(b1-4)GlcNAc(b1-3)Gal(b1-4)GlcNAc(b1-2)Man(a1-3)[GlcNAc(b1-3)Gal(b1-4)GlcNAc(b1-3)Gal(b1-4)GlcNAc(b1-3)Gal(b1-4)GlcNAc(b1-2)Man(a1-6)]Man(b1-4)GlcNAc(b1-4)GlcNAc
# Outline: as §1
# [23] = target: GlcNAc(b1-3)Gal(b1-4)GlcNAc(b1-3)Gal(b1-4)GlcNAc(b1-3)Gal(b1-4)GlcNAc(b1-2)Man(a1-3)[GlcNAc(b1-3)Gal(b1-4)GlcNAc(b1-3)Gal(b1-4)GlcNAc(b1-3)Gal(b1-4)GlcNAc(b1-2)Man(a1-6)]Man(b1-4)GlcNAc(b1-4)[Fuc(a1-6)]GlcNAc
# Outline: as §1
# [24] = target: GlcNAc(b1-3)Gal(b1-4)GlcNAc(b1-3)Gal(b1-4)GlcNAc(b1-3)Gal(b1-4)GlcNAc(b1-2)[GlcNAc(b1-3)Gal(b1-4)GlcNAc(b1-3)Gal(b1-4)GlcNAc(b1-3)Gal(b1-4)GlcNAc(b1-6)]Man(a1-6)[GlcNAc(b1-3)Gal(b1-4)GlcNAc(b1-3)Gal(b1-4)GlcNAc(b1-3)Gal(b1-4)GlcNAc(b1-2)Man(a1-3)]Man(b1-4)GlcNAc(b1-4)[Fuc(a1-6)]GlcNAc
# Outline: as §1
# [25] = target: GlcNAc(b1-3)Gal(b1-4)GlcNAc(b1-3)Gal(b1-4)GlcNAc(b1-3)Gal(b1-4)GlcNAc(b1-3)Gal(b1-4)GlcNAc(b1-2)Man(a1-3)[GlcNAc(b1-3)Gal(b1-4)GlcNAc(b1-3)Gal(b1-4)GlcNAc(b1-3)Gal(b1-4)GlcNAc(b1-3)Gal(b1-4)GlcNAc(b1-2)Man(a1-6)]Man(b1-4)GlcNAc(b1-4)GlcNAc
# Outline: as §1
# [26] = target: GlcNAc(b1-3)Gal(b1-4)GlcNAc(b1-3)Gal(b1-4)GlcNAc(b1-3)Gal(b1-4)GlcNAc(b1-3)Gal(b1-4)GlcNAc(b1-2)Man(a1-3)[GlcNAc(b1-3)Gal(b1-4)GlcNAc(b1-3)Gal(b1-4)GlcNAc(b1-3)Gal(b1-4)GlcNAc(b1-3)Gal(b1-4)GlcNAc(b1-2)Man(a1-6)]Man(b1-4)GlcNAc(b1-4)[Fuc(a1-6)]GlcNAc
# Outline: as §1
# [27] = target: GlcNAc(b1-3)Gal(b1-4)GlcNAc(b1-3)Gal(b1-4)GlcNAc(b1-3)Gal(b1-4)GlcNAc(b1-3)Gal(b1-4)GlcNAc(b1-2)[GlcNAc(b1-3)Gal(b1-4)GlcNAc(b1-3)Gal(b1-4)GlcNAc(b1-3)Gal(b1-4)GlcNAc(b1-3)Gal(b1-4)GlcNAc(b1-6)]Man(a1-6)[GlcNAc(b1-3)Gal(b1-4)GlcNAc(b1-3)Gal(b1-4)GlcNAc(b1-3)Gal(b1-4)GlcNAc(b1-3)Gal(b1-4)GlcNAc(b1-2)Man(a1-3)]Man(b1-4)GlcNAc(b1-4)[Fuc(a1-6)]GlcNAc
# Outline: as §1
# [28] = target: GlcNAc(b1-3)Gal(b1-4)GlcNAc(b1-3)Gal(b1-4)GlcNAc(b1-3)GalNAc
# Outline: as §1
# [29] = target: GlcNAc(b1-3)Gal(b1-4)GlcNAc(b1-3)GalNAc
# Outline: as §1
# [30] = target: GlcNAc(b1-3)Gal(b1-4)GlcNAc(b1-3)[GlcNAc(b1-3)Gal(b1-4)GlcNAc(b1-3)]GalNAc
# Outline: as §1
# [31] = target: GlcNAc(b1-3)Gal(b1-4)GlcNAc(b1-6)[Gal(b1-3)]GalNAc
# Outline: as §1
# [32] = target: GlcNAc(b1-3)Gal(b1-4)GlcNAc(b1-6)[GlcNAc(b1-3)Gal(b1-3)]GalNAc
# Outline: as §1
# [33] = target: GlcNAc(b1-3)Gal(b1-4)GlcNAc(b1-6)[GlcNAc(b1-3)]Gal(b1-4)GlcNAc
# Outline: as §1
# GlcNAc(b1-3)GalNAc = target: GlcNAc(b1-3)GalNAc
# Outline: as §1
# GlcNAc(b1-3)Man = target: GlcNAc(b1-3)Man
# Outline: as §1
# [34] = target: GlcNAc(b1-3)[GlcNAc(b1-4)][GlcNAc(b1-6)]GlcNAc
# Outline: as §1
# [35] = target: GlcNAc(b1-3)[GlcNAc(b1-6)]Gal(b1-4)GlcNAc
# Outline: as §1
# [36] = target: GlcNAc(b1-3)[GlcNAc(b1-6)]GalNAc
# Outline: as §1
# [37] = target: GlcNAc(b1-4)Gal(b1-4)GlcNAc
# Outline: as §1
# GlcNAc(b1-4)GlcNAc = target: GlcNAc(b1-4)GlcNAc
# Outline: as §1
# [38] = target: GlcNAc(b1-4)GlcNAc(b1-4)GlcNAc
# Outline: as §1
# [39] = target: GlcNAc(b1-4)GlcNAc(b1-4)GlcNAc(b1-4)GlcNAc(b1-4)GlcNAc
# Outline: as §1
binder,measurement,setting,value
B1,glycan array binding signal (z-score),[1],0.486
same,glycan array binding signal (z-score),[2],-0.408
same,glycan array binding signal (z-score),[3],0.474
same,glycan array binding signal (z-score),[4],-0.464
same,glycan array binding signal (z-score),[5],-0.367
same,glycan array binding signal (z-score),[6],-0.579
same,glycan array binding signal (z-score),[7],0.535
same,glycan array binding signal (z-score),[8],-0.346
same,glycan array binding signal (z-score),[9],-0.967
same,glycan array binding signal (z-score),[10],-0.671
same,glycan array binding signal (z-score),[11],0.734
same,glycan array binding signal (z-score),[12],-0.875
same,glycan array binding signal (z-score),GlcNAc(b1-3)Fuc,-0.593
same,glycan array binding signal (z-score),GlcNAc(b1-3)Gal,-0.419
same,glycan array binding signal (z-score),[13],-0.072
same,glycan array binding signal (z-score),GlcNAc(b1-3)Gal(b1-4)Glc,-0.146
same,glycan array binding signal (z-score),[14],-0.768
same,glycan array binding signal (z-score),[15],0.619
same,glycan array binding signal (z-score),[16],1.34
same,glycan array binding signal (z-score),[17],3.64
same,glycan array binding signal (z-score),[18],-0.585
same,glycan array binding signal (z-score),[19],0.828
same,glycan array binding signal (z-score),[20],1.26
same,glycan array binding signal (z-score),[21],2.02
same,glycan array binding signal (z-score),[22],-0.025
same,glycan array binding signal (z-score),[23],5.83
same,glycan array binding signal (z-score),[24],0.585
same,glycan array binding signal (z-score),[25],2.75
same,glycan array binding signal (z-score),[26],0.099
same,glycan array binding signal (z-score),[27],1.84
same,glycan array binding signal (z-score),[28],-0.424
same,glycan array binding signal (z-score),[29],-0.789
same,glycan array binding signal (z-score),[30],-0.889
same,glycan array binding signal (z-score),[31],-0.731
same,glycan array binding signal (z-score),[32],-0.82
same,glycan array binding signal (z-score),[33],-1.35
same,glycan array binding signal (z-score),GlcNAc(b1-3)GalNAc,-0.334
same,glycan array binding signal (z-score),GlcNAc(b1-3)Man,-0.284
same,glycan array binding signal (z-score),[34],-0.759
same,glycan array binding signal (z-score),[35],-0.688
same,glycan array binding signal (z-score),[36],0.112
same,glycan array binding signal (z-score),[37],-0.886
same,glycan array binding signal (z-score),GlcNAc(b1-4)GlcNAc,-0.55
same,glycan array binding signal (z-score),[38],-0.589
same,glycan array binding signal (z-score),[39],0.378

# Quoted at random: three entries already listed, in no set order.
binder,measurement,setting,value
B1,glycan array binding signal (z-score),[20],1.26
same,glycan array binding signal (z-score),[7],0.535
same,glycan array binding signal (z-score),[13],-0.072
